Results from paper PMC5682672.
Results are given in words; binding and its absence hold for the method and conditions named. Binding seen in cells or lysates may run through a third protein. Some entries that bind do so weakly or less than the wild type.

Chains of the proteins cited; added tags and fusions are not shown. Residues count along the entry.
UniProt Q15375, residues 28-998: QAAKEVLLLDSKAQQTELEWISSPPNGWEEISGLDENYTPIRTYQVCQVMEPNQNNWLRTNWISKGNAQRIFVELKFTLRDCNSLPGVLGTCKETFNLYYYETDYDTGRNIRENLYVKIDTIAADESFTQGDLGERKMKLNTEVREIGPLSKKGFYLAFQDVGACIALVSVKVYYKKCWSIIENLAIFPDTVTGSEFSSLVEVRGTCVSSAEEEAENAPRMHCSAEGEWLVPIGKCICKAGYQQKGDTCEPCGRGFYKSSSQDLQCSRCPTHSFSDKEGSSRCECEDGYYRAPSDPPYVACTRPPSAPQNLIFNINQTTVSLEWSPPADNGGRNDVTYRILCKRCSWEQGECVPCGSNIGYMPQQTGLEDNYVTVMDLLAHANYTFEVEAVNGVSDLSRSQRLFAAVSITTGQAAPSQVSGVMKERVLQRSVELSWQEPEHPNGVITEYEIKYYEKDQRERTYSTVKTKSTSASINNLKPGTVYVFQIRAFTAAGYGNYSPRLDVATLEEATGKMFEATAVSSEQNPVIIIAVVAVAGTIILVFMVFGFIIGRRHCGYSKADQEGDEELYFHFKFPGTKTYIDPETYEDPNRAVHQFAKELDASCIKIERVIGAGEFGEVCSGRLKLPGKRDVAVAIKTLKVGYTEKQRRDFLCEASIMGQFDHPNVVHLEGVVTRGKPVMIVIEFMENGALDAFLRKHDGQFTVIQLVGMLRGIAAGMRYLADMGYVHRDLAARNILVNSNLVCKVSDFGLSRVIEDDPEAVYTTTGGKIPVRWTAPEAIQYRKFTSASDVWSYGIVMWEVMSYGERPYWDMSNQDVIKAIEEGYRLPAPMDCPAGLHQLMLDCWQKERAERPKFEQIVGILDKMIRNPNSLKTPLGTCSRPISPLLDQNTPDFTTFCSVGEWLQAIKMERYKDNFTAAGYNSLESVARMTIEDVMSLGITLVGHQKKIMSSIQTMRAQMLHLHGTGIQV

Biological target: EphA7 receptor (human (endogenous in LNCaP)) (UniProt Q15375)
Assay: co-IP; endogenous proteins in LNCaP cell lysates; cells lysed and immunoprecipitated with an EphA7-specific antibody (CST), western blot

- binding: binds
B1: ephrinA5 ligand (ligand, UniProt P52803 21-203)
chain: QDPGSKAVADRYAVYWNSSNPRFQRGDYHIDVCINDYLDVFCPHYEDSVPEDKTERYVLYMVNFDGYSACDHTSKGFKRWECNRPHSPNGPLKFSEKFQLFTPFSLGFEFRPGREYFYISSAIPDNGRRSCLKLKVFVRPTNSCMKTIGVHDRVFDVNDKVENSLEPADDTVHESAEPSRGEN
